Laboratory results as given in the supplement of paper PMC10849652.
The other results are listed elsewhere or left out.

Amino acid sequences for entries named in this document (tags omitted). A change or cut given only in a name is not applied to a line headed by its entry.
UniProt Q9BRX2, whole entry, looked up: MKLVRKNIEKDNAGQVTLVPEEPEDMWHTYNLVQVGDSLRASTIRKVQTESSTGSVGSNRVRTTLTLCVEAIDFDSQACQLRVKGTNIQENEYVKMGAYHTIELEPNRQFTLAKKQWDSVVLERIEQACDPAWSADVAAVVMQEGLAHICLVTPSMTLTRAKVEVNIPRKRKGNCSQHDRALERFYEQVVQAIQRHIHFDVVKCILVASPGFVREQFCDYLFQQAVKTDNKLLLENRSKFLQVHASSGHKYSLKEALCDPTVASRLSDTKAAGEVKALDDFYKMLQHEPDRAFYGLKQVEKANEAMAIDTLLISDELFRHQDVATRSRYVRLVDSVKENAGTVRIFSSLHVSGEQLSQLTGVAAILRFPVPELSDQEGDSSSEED
UniProt Q8WUM4: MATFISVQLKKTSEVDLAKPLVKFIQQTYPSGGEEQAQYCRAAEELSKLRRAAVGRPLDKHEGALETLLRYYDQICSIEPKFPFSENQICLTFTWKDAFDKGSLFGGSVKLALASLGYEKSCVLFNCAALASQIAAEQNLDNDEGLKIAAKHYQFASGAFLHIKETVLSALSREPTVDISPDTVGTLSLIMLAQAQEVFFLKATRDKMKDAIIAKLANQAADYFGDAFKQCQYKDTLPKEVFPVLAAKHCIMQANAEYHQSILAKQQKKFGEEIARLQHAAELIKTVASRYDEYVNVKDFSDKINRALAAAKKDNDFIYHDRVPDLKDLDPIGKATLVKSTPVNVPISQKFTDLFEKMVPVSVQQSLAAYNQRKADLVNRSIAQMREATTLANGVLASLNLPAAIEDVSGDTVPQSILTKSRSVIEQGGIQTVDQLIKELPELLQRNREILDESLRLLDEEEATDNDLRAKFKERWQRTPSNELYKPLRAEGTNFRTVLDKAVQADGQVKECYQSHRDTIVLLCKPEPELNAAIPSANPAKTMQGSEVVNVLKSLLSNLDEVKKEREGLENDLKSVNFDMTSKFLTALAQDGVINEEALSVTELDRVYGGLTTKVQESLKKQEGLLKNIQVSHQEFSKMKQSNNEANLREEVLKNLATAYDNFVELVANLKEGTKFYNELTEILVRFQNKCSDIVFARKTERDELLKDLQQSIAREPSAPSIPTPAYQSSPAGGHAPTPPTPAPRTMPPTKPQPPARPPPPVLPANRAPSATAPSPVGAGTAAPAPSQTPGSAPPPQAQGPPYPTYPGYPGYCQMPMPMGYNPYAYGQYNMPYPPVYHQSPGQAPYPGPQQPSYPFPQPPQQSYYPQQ
UniProt Q9H0N5: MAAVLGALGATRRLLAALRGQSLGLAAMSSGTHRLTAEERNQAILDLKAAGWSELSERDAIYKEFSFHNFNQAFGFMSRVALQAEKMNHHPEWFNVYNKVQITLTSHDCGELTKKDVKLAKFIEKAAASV
UniProt Q8TE04: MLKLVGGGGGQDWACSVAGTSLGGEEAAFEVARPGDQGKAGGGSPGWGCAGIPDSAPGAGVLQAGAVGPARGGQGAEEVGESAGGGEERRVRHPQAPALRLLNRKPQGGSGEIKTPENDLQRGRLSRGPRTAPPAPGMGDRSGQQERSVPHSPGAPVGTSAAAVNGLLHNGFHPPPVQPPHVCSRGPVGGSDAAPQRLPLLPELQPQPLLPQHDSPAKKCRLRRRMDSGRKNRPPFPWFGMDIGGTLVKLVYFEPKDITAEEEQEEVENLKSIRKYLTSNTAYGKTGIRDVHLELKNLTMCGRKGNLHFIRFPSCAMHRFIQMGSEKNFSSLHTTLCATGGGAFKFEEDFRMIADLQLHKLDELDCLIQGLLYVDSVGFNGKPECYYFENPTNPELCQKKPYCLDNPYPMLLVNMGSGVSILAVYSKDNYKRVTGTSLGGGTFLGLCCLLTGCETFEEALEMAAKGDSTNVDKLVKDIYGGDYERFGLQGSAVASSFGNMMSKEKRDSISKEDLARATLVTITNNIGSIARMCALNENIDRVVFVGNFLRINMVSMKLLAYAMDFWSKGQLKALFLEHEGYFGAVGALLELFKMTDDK
UniProt O00623: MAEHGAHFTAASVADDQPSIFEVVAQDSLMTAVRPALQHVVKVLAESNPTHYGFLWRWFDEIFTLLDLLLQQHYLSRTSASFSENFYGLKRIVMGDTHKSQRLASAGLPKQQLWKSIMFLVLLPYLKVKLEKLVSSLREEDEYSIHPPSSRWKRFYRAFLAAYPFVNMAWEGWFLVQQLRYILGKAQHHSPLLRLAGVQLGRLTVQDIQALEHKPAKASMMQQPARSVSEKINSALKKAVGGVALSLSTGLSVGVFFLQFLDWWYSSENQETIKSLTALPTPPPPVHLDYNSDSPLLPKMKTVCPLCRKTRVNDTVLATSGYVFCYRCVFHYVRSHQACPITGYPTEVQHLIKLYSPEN
UniProt P51160: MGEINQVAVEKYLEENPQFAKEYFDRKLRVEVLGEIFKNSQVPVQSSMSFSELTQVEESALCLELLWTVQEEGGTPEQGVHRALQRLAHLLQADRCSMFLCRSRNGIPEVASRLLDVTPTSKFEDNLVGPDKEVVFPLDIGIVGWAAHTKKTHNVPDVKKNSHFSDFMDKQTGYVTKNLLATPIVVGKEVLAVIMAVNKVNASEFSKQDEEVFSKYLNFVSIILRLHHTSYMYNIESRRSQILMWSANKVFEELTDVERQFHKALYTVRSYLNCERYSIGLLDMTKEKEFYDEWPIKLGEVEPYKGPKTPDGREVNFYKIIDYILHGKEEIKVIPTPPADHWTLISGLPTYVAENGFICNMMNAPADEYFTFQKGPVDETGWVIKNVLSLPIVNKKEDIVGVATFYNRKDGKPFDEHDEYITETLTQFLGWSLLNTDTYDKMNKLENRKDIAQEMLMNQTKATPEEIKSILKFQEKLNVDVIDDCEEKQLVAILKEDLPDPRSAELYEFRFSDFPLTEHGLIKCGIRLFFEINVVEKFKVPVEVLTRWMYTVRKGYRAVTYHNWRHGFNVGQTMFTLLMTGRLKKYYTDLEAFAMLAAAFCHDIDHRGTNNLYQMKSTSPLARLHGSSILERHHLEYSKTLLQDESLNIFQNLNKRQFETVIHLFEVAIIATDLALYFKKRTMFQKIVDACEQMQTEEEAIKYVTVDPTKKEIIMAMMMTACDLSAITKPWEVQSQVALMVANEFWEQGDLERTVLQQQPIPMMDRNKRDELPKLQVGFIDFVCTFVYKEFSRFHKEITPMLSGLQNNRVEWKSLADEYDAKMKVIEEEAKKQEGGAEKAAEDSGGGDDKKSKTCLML
UniProt O96013: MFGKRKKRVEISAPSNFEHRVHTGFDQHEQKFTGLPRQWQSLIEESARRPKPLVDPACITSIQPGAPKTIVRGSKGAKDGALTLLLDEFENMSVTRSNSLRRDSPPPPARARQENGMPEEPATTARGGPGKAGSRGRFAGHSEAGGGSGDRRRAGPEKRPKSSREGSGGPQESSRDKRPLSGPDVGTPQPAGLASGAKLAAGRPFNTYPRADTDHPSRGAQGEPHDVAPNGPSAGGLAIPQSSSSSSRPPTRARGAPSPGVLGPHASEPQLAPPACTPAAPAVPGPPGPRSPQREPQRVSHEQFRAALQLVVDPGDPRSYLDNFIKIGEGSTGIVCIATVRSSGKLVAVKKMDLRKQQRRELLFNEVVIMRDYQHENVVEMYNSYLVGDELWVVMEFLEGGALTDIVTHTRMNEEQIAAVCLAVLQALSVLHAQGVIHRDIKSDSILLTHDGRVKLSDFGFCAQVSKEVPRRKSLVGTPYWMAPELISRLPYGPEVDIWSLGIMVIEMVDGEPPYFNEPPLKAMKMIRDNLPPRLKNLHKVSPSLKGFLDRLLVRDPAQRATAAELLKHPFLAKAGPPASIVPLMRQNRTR
UniProt Q8WW12: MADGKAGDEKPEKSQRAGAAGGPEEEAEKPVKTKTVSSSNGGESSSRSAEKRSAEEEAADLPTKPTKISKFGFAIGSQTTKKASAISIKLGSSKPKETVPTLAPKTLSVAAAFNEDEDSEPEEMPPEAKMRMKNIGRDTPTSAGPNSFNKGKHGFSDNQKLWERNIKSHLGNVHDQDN

Assays:
Test in all cases: log2 fold change, soluble protein after heating vs DMSO (PISA); higher = thermal stabilisation; K562 cells, 10 uM, 30 min; active = over 0.2 and 3.5 SD of the protein, either way, in both replicates (recomputed)
saracatinib = compound: CN1CCN(CCOc2cc(OC3CCOCC3)c3c(Nc4c(Cl)ccc5c4OCO5)ncnc3c2)CC1 [saracatinib]
Summary of the method: (§1)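 K562 cells at 2×10^6 cells/mL were exposed to 10 μM compound for 30 min, then aliquots were heated for 3 min across 48°C-58°C, pooled, and extracted in PBS containing 0.5% NP-40 at 4°C. The supernatant after 21,000xg for 90 min was taken as soluble protein and measured by TMTpro 16plex LC-MS/MS with channel sums equalised. Thermal stability is reported relative to control samples, with values from duplicates. Fold changes are given on a log2 scale.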

sotrastaurin = compound: CN1CCN(c2nc(C3=C(c4c[nH]c5ccccc45)C(=O)NC3=O)c3ccccc3n2)CC1 [sotrastaurin]
Summary of the method: as §1

Tubastatin A = compound: CN1CCc2c(c3ccccc3n2Cc2ccc(C(=O)NO)cc2)C1 [Tubastatin A]
Summary of the method: as §1

[1] = compound: CNC(=O)C1=CC=CC=C1NC2=NC(=NC=C2Cl)NC3=C(C=C(C=C3)N4CCOCC4)OC
Summary of the method: as §1

defactinib = compound: CNC(=O)c1ccc(Nc2ncc(C(F)(F)F)c(NCc3nccnc3N(C)S(C)(=O)=O)n2)cc1 [defactinib]
Summary of the method: as §1

rucaparib = compound: CNCc1ccc(-c2[nH]c3cc(F)cc4c3c2CCNC4=O)cc1 [rucaparib]
Summary of the method: as §1

[2] = compound: CNc1nc(-c2ccc3c(N)n[nH]c3c2)cc(N2C[C@@H](C(=O)NC3CCCCC3)CC[C@H]2C)n1
Summary of the method: as §1

encorafenib = compound: COC(=O)N[C@@H](C)CNc1nccc(-c2cn(C(C)C)nc2-c2cc(Cl)cc(NS(C)(=O)=O)c2F)n1 [encorafenib]
Summary of the method: as §1

[3] = compound: COC(=O)[C@H](CCSC)NC(=O)C1=C(C=C(C=C1)NC[C@H](CS)N)C2=CC=CC=C2
Summary of the method: as §1

[4] = compound: COC1=CC=C(C=C1)CN2C=CC3=C2C=C(C=C3)C(=O)NO
Summary of the method: as §1

filanesib = compound: CON(C)C(=O)N1N=C(c2cc(F)ccc2F)S[C@@]1(CCCN)c1ccccc1 [filanesib]
Summary of the method: as §1

zotarolimus = compound: CO[C@H]1C[C@@H]2CC[C@@H](C)[C@@](O)(O2)C(=O)C(=O)N2CCCC[C@H]2C(=O)O[C@H]([C@H](C)C[C@@H]2CC[C@H](n3cnnn3)[C@H](OC)C2)CC(=O)[C@H](C)/C=C(\C)[C@@H](O)[C@@H](OC)C(=O)[C@H](C)C[C@H](C)/C=C/C=C/C=C/1C [zotarolimus]
Summary of the method: as §1

idasanutlin = compound: COc1cc(C(=O)O)ccc1NC(=O)[C@@H]1N[C@@H](CC(C)(C)C)[C@](C#N)(c2ccc(Cl)cc2F)[C@H]1c1cccc(Cl)c1F [idasanutlin]
Summary of the method: as §1

alisertib = compound: COc1cc(Nc2ncc3c(n2)-c2ccc(Cl)cc2C(c2c(F)cccc2OC)=NC3)ccc1C(=O)O [alisertib]
Summary of the method: as §1

[5] = compound: COc1cc2nc(-c3cc(F)ccc3O)nc(N[C@@H]3CNC[C@H]3C(C)(C)O)c2cc1OC
Summary of the method: as §1

gefitinib = compound: COc1cc2ncnc(Nc3ccc(F)c(Cl)c3)c2cc1OCCCN1CCOCC1 [gefitinib]
Summary of the method: as §1

[6] = compound: COc1cccc2cc(-c3nc([C@H]4CC[C@H](C(=O)O)CC4)n4ncnc(N)c34)[nH]c12
Summary of the method: as §1

lapatinib = compound: CS(=O)(=O)CCNCc1ccc(-c2ccc3ncnc(Nc4ccc(OCc5cccc(F)c5)c(Cl)c4)c3c2)o1 [lapatinib]
Summary of the method: as §1

pictilisib = compound: CS(=O)(=O)N1CCN(Cc2cc3nc(-c4cccc5[nH]ncc45)nc(N4CCOCC4)c3s2)CC1 [pictilisib]
Summary of the method: as §1

alvocidib = compound: CN1CC[C@H](c2c(O)cc(O)c3c(=O)cc(-c4ccccc4Cl)oc23)[C@H](O)C1 [alvocidib]
Summary of the method: as §1

Measured: log2 fold change

PELO (UniProt Q9BRX2)
inactive: saracatinib -0.079 | sotrastaurin -0.218 | Tubastatin A 0.121 | [1] -0.122 | defactinib -0.058 | rucaparib 0.299 | [2] 0.148 | encorafenib 0.137 | [3] 0.061 | [4] 0.001 | filanesib 0.128 | zotarolimus 0.158 | idasanutlin -0.024 | alisertib 0.489 | [5] 0.053 | gefitinib 0.009 | [6] 0.001 | lapatinib -0.06 | pictilisib -0.111

PDCD6IP (UniProt Q8WUM4)
inactive: saracatinib -0.11 | sotrastaurin -0.227 | Tubastatin A 0.048 | [1] 0.034 | defactinib -0.141 | rucaparib 0.119 | [2] 0.055 | encorafenib 0.138 | [3] -0.048 | [4] 0.105 | filanesib -0.022 | zotarolimus 0.079 | idasanutlin -0.018 | alisertib 0.045 | [5] 0.022 | gefitinib 0.06 | [6] -0.118 | lapatinib -0.04 | pictilisib 0.009

PCBD2 (UniProt Q9H0N5)
inactive: saracatinib 0.038 | sotrastaurin -0.014 | alvocidib 0.038 | Tubastatin A -0.048 | [1] 0.01 | defactinib 0.015 | rucaparib -0.014 | [2] -0.039 | encorafenib -0.01 | [3] 0.028 | [4] -0.002 | filanesib -0.033 | zotarolimus 0.001 | idasanutlin -0.01 | alisertib -0.02 | [5] -0.001 | gefitinib 0.006 | [6] 0.026 | lapatinib -0.04 | pictilisib 0.055

PANK1 (UniProt Q8TE04)
inactive: saracatinib -0.008 | sotrastaurin 0.069 | alvocidib -0.055 | Tubastatin A 0 | [1] -0.009 | defactinib -0.046 | rucaparib -0.169 | [2] 0.004 | encorafenib 0.046 | [3] -0.05 | filanesib -0.055 | zotarolimus 0.015 | idasanutlin 0.133 | alisertib 0.041 | [5] 0.019 | gefitinib 0.038 | [6] 0.099 | lapatinib 0.044 | pictilisib 0.061

PEX12 (UniProt O00623)
inactive: saracatinib 0 | sotrastaurin -0.045 | alvocidib 0.017 | Tubastatin A -0.006 | [1] 0.008 | defactinib -0.017 | [2] 0 | [3] 0.141 | [4] 0.095 | filanesib -0.055 | zotarolimus -0.112 | idasanutlin -0.073 | alisertib -0.023 | [5] -0.111 | gefitinib 0.001 | [6] -0.046 | lapatinib 0.014 | pictilisib -0.11

PDE6C (UniProt P51160)
inactive: saracatinib 0.112 | sotrastaurin 0.006 | alvocidib -0.185 | Tubastatin A -0.166 | defactinib -0.23 | rucaparib -0.277 | [2] 0.026 | encorafenib 0.047 | [3] -0.17 | [4] 0.18 | filanesib -0.128 | zotarolimus 0.143 | idasanutlin -0.241 | alisertib -0.157 | [5] -0.14 | gefitinib -0.071 | [6] 0.178 | lapatinib 0.044

PAK4 (UniProt O96013)
inactive: saracatinib -0.047 | sotrastaurin 0.098 | Tubastatin A 0.005 | [1] -0.012 | defactinib -0.017 | rucaparib -0.067 | [2] 0 | encorafenib 0.085 | [3] 0.03 | [4] -0.106 | filanesib 0.068 | zotarolimus 0.03 | idasanutlin -0.021 | alisertib 0.153 | [5] 0.195 | gefitinib 0 | [6] 0.075 | lapatinib -0.047 | pictilisib 0.072

PCNP (UniProt Q8WW12)
inactive: saracatinib 0.026 | sotrastaurin 0.006 | alvocidib 0.037 | Tubastatin A -0.019 | [1] -0.022 | defactinib 0.029 | rucaparib -0.025 | [2] -0.018 | encorafenib -0.018 | [3] -0.005 | [4] 0.158 | filanesib -0.027 | zotarolimus -0.038 | idasanutlin 0.016 | alisertib -0.016 | [5] -0.01 | gefitinib -0.015 | [6] 0.035 | lapatinib 0.009 | pictilisib 0
